Measured values reported in patent US20150080463A1, “METHODS FOR PREDICTING CARDIOVASCULAR EVENTS AND MONITORING TREATMENT USING PCSK9” (BG MEDICINE, INC., priority 2010, published 2015).
For at least one compound, name, drawing or mass did not settle the structure.

Tested on: PCSK9
Assay: Blood serum PCSK9 concentration (colorimetric sandwich immunoassay) in a randomized, double-blind clinical study
Type: in vivo
Conditions: human subjects with primary hypercholesterolemia or mixed hyperlipidemia; daily administration for 12 weeks; ANCOVA least squares mean, FIG. 2

CCC(C)(C)C(=O)O[C@H]1C[C@@H](C)C=C2C=C[C@H](C)[C@H](CC[C@@H]3C[C@@H](O)CC(=O)O3)[C@H]21 [simvastatin]
change in levels of PCSK9 in blood serum between Week 0 and Week 12: increase
